Laboratory results taken from publication PMC4178304.

Amino acid sequences for entries named in this document (tags omitted).
UniProt Q2NKI2: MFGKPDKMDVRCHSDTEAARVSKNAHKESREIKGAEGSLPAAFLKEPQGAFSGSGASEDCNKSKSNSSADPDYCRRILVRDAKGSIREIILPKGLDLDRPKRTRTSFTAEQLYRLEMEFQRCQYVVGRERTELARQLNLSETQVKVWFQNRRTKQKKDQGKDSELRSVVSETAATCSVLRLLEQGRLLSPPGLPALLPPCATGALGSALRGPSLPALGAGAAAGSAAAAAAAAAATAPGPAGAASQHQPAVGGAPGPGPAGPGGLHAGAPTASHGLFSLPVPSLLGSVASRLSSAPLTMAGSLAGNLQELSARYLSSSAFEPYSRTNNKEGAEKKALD
UniProt Q99613: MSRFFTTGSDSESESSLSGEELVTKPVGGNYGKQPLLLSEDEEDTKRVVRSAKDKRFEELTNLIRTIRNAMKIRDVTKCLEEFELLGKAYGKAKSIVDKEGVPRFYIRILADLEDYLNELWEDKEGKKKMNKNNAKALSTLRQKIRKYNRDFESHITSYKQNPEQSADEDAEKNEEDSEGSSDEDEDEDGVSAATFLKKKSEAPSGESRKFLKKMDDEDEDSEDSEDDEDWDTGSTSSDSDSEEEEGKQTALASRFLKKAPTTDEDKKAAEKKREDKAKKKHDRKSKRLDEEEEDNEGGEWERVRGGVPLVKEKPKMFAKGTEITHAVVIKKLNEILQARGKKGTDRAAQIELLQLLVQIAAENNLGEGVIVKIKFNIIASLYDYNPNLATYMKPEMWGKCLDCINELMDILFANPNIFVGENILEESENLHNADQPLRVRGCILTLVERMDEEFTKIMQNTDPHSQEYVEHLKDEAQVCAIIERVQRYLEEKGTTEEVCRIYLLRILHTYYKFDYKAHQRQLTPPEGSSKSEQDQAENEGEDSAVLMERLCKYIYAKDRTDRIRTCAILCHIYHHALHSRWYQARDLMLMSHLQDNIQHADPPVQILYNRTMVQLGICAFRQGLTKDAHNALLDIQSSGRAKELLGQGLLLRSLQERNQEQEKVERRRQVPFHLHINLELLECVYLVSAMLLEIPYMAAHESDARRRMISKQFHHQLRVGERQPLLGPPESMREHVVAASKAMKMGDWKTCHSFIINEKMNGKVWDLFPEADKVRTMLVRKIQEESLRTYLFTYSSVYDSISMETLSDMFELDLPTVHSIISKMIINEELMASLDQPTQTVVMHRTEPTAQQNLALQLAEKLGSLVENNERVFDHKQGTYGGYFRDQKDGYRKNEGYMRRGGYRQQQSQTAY
UniProt P55884: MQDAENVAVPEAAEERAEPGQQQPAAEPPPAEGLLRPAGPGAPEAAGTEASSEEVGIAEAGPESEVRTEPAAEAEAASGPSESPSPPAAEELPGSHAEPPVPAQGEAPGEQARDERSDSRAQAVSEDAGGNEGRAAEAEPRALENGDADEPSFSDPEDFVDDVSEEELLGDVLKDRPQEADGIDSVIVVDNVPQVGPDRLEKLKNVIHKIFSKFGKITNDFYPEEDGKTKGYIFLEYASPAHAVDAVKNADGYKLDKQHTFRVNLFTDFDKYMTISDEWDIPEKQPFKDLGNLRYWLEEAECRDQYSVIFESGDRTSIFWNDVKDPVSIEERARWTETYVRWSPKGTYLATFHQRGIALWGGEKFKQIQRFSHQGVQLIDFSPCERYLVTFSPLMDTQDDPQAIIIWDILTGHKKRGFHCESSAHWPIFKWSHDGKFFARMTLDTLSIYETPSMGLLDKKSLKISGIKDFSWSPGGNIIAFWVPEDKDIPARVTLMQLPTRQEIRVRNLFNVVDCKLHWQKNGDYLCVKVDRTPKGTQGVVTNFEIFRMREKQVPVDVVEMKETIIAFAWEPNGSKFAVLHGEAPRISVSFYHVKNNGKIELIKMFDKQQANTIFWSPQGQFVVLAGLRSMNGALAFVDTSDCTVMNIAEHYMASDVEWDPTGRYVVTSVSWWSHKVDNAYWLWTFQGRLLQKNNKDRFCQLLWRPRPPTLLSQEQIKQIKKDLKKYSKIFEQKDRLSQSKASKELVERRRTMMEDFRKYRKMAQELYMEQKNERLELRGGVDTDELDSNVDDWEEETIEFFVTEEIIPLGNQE
UniProt P0DMV8: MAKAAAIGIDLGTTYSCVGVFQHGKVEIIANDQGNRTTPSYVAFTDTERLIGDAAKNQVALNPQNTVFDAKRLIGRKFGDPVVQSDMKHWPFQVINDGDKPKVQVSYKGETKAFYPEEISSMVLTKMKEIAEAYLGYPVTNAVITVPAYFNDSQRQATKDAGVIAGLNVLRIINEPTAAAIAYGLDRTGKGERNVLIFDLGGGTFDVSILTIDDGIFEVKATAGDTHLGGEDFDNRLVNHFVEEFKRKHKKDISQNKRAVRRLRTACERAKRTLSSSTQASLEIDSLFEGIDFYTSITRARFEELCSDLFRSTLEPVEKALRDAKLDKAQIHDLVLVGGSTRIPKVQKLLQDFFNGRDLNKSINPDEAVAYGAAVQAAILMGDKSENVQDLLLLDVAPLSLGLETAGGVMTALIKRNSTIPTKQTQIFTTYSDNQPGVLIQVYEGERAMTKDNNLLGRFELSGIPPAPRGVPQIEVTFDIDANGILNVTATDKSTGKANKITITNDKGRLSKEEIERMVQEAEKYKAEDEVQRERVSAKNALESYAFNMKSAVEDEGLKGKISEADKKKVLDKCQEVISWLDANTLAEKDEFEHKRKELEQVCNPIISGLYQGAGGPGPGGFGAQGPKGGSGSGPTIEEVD

target: GST-Vax1 (mouse) (UniProt Q2NKI2); assay: affinity purification with mass spectrometry; GST-Vax1 (control GST) from cytoplasmic fractions of transfected HEK293T cells on glutathione Sepharose 4B, 4°C 1 hr, 10 mM Tris-HCl pH 7.4, 200 mM NaCl, 1% NP-40; SDS-PAGE, silver stain, bands identified by MALDI-TOF

Row | binding | Substance
1 | binds | Eukaryotic translation initiation factor (eIF) 3C (from UniProt Q99613 1-913)
2 | binds | Eukaryotic translation initiation factor (eIF) 3B (from UniProt P55884 1-814)
3 | binds | HSPA1A (heat shock 70-kDa protein 1A) (from UniProt P0DMV8 1-641)

No constants are given. Whether binding was seen depends on the method and setting. Binding seen in cells or lysates may run through a third protein. Here binding means that the protein was enriched with, or labelled near, the bait; the list need not be complete.
